Results are given in words; binding and its absence hold for the method and conditions named. In cells and extracts the contact can be indirect. Here binding means that the protein was enriched with, or labelled near, the bait; the list need not be complete.
Target: PFKFB3 of the immunoprecipitate analysed by mass spectrometry (UniProt Q16875)
Assay: affinity purification with mass spectrometry; protein samples from IP separated by SDS-PAGE, LC-ESIMS/MS on Q Exactive HF; cells and IP antibody not stated

Chains of the proteins cited; added tags and fusions are not shown.
UniProt Q16875: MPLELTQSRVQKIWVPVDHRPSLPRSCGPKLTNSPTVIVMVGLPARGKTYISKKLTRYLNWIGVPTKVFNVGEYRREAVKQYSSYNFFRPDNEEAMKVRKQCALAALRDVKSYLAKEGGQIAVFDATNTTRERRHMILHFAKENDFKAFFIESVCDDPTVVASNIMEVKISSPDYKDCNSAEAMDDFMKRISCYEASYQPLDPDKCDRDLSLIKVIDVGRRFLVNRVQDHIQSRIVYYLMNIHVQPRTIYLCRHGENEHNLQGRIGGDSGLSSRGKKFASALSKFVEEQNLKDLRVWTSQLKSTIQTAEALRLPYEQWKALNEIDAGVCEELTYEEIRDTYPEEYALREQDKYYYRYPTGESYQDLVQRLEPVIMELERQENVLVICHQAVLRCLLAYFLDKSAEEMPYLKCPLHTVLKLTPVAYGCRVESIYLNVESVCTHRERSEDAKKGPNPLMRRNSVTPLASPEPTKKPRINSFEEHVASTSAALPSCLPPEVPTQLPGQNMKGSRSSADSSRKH

B1: KDM2A found by mass spectrometry of the immunoprecipitate (protein, UniProt Q9Y2K7 1-1162)
chain: MEPEEERIRYSQRLRGTMRRRYEDDGISDDEIEGKRTFDLEEKLHTNKYNANFVTFMEGKDFNVEYIQRGGLRDPLIFKNSDGLGIKMPDPDFTVNDVKMCVGSRRMVDVMDVNTQKGIEMTMAQWTRYYETPEEEREKLYNVISLEFSHTRLENMVQRPSTVDFIDWVDNMWPRHLKESQTESTNAILEMQYPKVQKYCLMSVRGCYTDFHVDFGGTSVWYHIHQGGKVFWLIPPTAHNLELYENWLLSGKQGDIFLGDRVSDCQRIELKQGYTFVIPSGWIHAVYTPTDTLVFGGNFLHSFNIPMQLKIYNIEDRTRVPNKFRYPFYYEMCWYVLERYVYCITNRSHLTKEFQKESLSMDLELNGLESGNGDEEAVDREPRRLSSRRSVLTSPVANGVNLDYDGLGKTCRSLPSLKKTLAGDSSSDCSRGSHNGQVWDPQCAPRKDRQVHLTHFELEGLRCLVDKLESLPLHKKCVPTGIEDEDALIADVKILLEELANSDPKLALTGVPIVQWPKRDKLKFPTRPKVRVPTIPITKPHTMKPAPRLTPVRPAAASPIVSGARRRRVRCRKCKACVQGECGVCHYCRDMKKFGGPGRMKQSCVLRQCLAPRLPHSVTCSLCGEVDQNEETQDFEKKLMECCICNEIVHPGCLQMDGEGLLNEELPNCWECPKCYQEDSSEKAQKRKMEESDEEAVQAKVLRPLRSCDEPLTPPPHSPTSMLQLIHDPVSPRGMVTRSSPGAGPSDHHSASRDERFKRRQLLRLQATERTMVREKENNPSGKKELSEVEKAKIRGSYLTVTLQRPTKELHGTSIVPKLQAITASSANLRHSPRVLVQHCPARTPQRGDEEGLGGEEEEEEEEEEEDDSAEEGGAARLNGRGSWAQDGDESWMQREVWMSVFRYLSRRELCECMRVCKTWYKWCCDKRLWTKIDLSRCKAIVPQALSGIIKRQPVSLDLSWTNISKKQLTWLVNRLPGLKDLLLAGCSWSAVSALSTSSCPLLRTLDLRWAVGIKDPQIRDLLTPPADKPGQDNRSKLRNMTDFRLAGLDITDATLRLIIRHMPLLSRLDLSHCSHLTDQSSNLLTAVGSSTRYSLTELNMAGCNKLTDQTLIYLRRIANVTLIDLRGCKQITRKACEHFISDLSINSLYCLSDEKLIQKIS
Q: For B1, which binding is on record?
A: binds

From paper PMC8165180
